Results from one PubChem assay

The results are deposited in PubChem (AID1053133; Broad Institute, 2014).

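Vaccinia-infected cells with a two-color viral stage reporter; Venus fluorescence read on a plate reader; the cell line is not named here; timing not stated here.
The test concentration is not given here.
Percent change in Venus reporter signal; lower (more negative) values mean stronger inhibition of that viral stage.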

Values are in %.
The controls that fix the scale are not given here.
Common to all entries: measured here: Venus reporter, other viral stage.
This is a side read-out of the assay, for part of the compounds, not drawn at random.

compound	activity change (Venus) (%)
C[C@@H]1CN([C@H](C)CO)C(=O)c2cc(NC(=O)NC3CCCCC3)ccc2O[C@@H](C)CCCCO[C@@H]1CN(C)Cc1ccccc1	-61.82
Cc1ccc(S(=O)(=O)Nc2ccc3c(c2)C(=O)N([C@@H](C)CO)C[C@@H](C)[C@@H](CN(C)CC2CC2)OCCCC[C@@H](C)O3)cc1	-32.96
C=CCN1Cc2ccccc2[C@@H]2OC(c3ccc(OCCCO)cc3)=N[C@]2(CCS(=O)(=O)c2ccccc2)C1=O	-28.86
CN1c2ccc(Br)cc2[C@H]2[C@H](CCN2S(=O)(=O)c2ccccc2F)[C@@H]1CO	-25.5
COc1ccc(S(=O)(=O)Nc2ccc3c(c2)CC(=O)N([C@@H](C)CO)C[C@@H](C)[C@H](CN(C)Cc2ccc4c(c2)OCO4)O3)cc1	-43.75
Cc1ccccc1-c1ccc2c(c1)O[C@H](CN(C)C(=O)Nc1ccc(C(F)(F)F)cc1)[C@@H](C)CN([C@@H](C)CO)S2(=O)=O	-58.8
C[C@@H]1CN([C@H](C)CO)C(=O)c2cccc(NC(=O)Nc3ccc(C(F)(F)F)cc3)c2O[C@@H]1CN(C)S(=O)(=O)c1cccs1	-62.75
C[C@H]1CN([C@@H](C)CO)C(=O)c2c(c3ccccc3n2C)-c2ccccc2CO[C@@H]1CN(C)S(=O)(=O)c1cccs1	-47.45
O=C(C[C@@H]1CC[C@@H]2[C@H](COC[C@@H](O)CN2C(=O)Nc2cccc(Cl)c2)O1)NCC1CCCCC1	-17.72
O=C(C[C@@H]1CC[C@H]2[C@@H](COC[C@@H](O)CN2S(=O)(=O)c2cccc(Cl)c2)O1)Nc1ccc(-c2ccccc2)cc1	-72.83
C[C@@H]1CN([C@@H](C)CO)C(=O)c2cc(NC(=O)c3ccccc3)ccc2O[C@@H](C)CCCCO[C@H]1CN(C)Cc1ccc2c(c1)OCO2	-34.23
C[C@H]1CCCCO[C@@H](CN(C)CC2CCCCC2)[C@@H](C)CN([C@@H](C)CO)C(=O)c2cc(NC(=O)Nc3ccc4c(c3)OCO4)ccc2O1	-50.7
C[C@@H]1CN([C@H](C)CO)S(=O)(=O)c2ccc(C#CCC3CCCC3)cc2O[C@@H]1CN(C)C(=O)CC1CC1	-69.93
C[C@@H]1CCCCO[C@H](CN(C)Cc2ccc(Cl)c(Cl)c2)[C@H](C)CN([C@@H](C)CO)C(=O)c2cc(NS(=O)(=O)c3ccccc3)ccc2O1	-65.58
COc1ccc(CNC(=O)N(C)C[C@H]2OCc3ccccc3-c3c(n(C)c4ccccc34)C(=O)N([C@@H](C)CO)C[C@H]2C)cc1	-37.17
C[C@H](CO)N1C[C@H](C)[C@H](CN(C)Cc2cccc(C(F)(F)F)c2)OCc2ccccc2-c2ccccc2C1=O	-44.64
COc1ccccc1C#Cc1ccc2c(c1)[C@@H]1[C@@H](CCN1C(=O)c1ccc(F)cc1)[C@H](CO)N2	-33.99
COc1ccc2c3c(n(C)c2c1)[C@H](CO)N(C(=O)c1ccccc1)CC31CCN(C(=O)c2ccccc2)CC1	-43.49
CCC(=O)N(C)C[C@@H]1Oc2cc(C#Cc3ccccc3)ccc2S(=O)(=O)N([C@H](C)CO)C[C@@H]1C	-43.42
COc1ccc(C#Cc2ccc3c(c2)O[C@@H](CN(C)C(=O)CN2CCOCC2)[C@@H](C)CN([C@@H](C)CO)S3(=O)=O)cc1	-44.06
C[C@H]1CN([C@@H](C)CO)C(=O)Cc2cc(NS(=O)(=O)c3ccccc3)ccc2O[C@H]1CN(C)CC1CCCCC1	-35.99
C[C@@H]1CCCCO[C@H](CN(C)CC2CCCCC2)[C@H](C)CN([C@@H](C)CO)C(=O)c2cc(NC(=O)Nc3cccc4ccccc34)ccc2O1	-45.1
NC(=O)[C@@H]1[C@H]2C(=O)O[C@H](c3ccccc3)[C@H](c3ccccc3)N2[C@H](c2ccccc2OCCO)[C@@]12C(=O)Nc1ccccc12	-69.06
C[C@H](CO)N1C[C@H](C)[C@@H](CN(C)C(=O)Nc2ccc(C(F)(F)F)cc2)Oc2ncc(/C=C/c3ccccc3)cc2C1=O	-33.47
CC(C)CC#Cc1cnc2c(c1)C(=O)N([C@@H](C)CO)C[C@@H](C)[C@H](CN(C)Cc1ccc3c(c1)OCO3)O2	-59.42
COc1cccc(-c2ccc3c(c2)[C@H]2[C@H](CCN2C(=O)NC2CCCCC2)[C@H](CO)N3C)c1	-55.7
O=C(C[C@@H]1CC[C@@H]2[C@H](COC[C@@H](O)CN2Cc2ccc(Cl)cc2)O1)NCCc1ccccc1	-20.98
COc1ccc2c3c(n(C)c2c1)[C@H](CO)N(C(C)=O)CC31CCN(Cc2ccc(Cl)cc2)CC1	-70.05
CC(C)C#Cc1ccc([C@H]2[C@@H](CO)N3CCCCN(S(=O)(=O)Cc4ccccc4)C[C@@H]23)cc1	-36.34
O=C(Nc1ccccc1F)N1CC(=O)N2[C@H](C1)[C@H](c1ccc(C#Cc3ccccc3)cc1)[C@@H]2CO	-44.76
O=C(CN1CCOCC1)N1CCCCN2[C@@H](CO)[C@@H](c3ccc(C#Cc4ccccc4)cc3)[C@@H]2C1	-38.6
N#Cc1ccc(-c2ccc3c(c2)[C@@H]2[C@@H](CCN2C(=O)C2CCCCC2)[C@@H](CO)N3)cc1	-23.6
COc1ccc2c3c(n(C)c2c1)[C@H](CO)N(C(=O)Nc1ccc(F)cc1)CC31CN(C(=O)c2ccccc2F)C1	-35.2
O=C1C=CCCN1S(=O)(=O)/C=C/c1ccccc1	-68.87
O=C(C[C@@H]1CC[C@@H]2[C@H](COC[C@H](O)CN2S(=O)(=O)c2ccccc2)O1)NCc1ccc(-c2ccccc2)cc1	-40.57
C[C@H]1CCCCO[C@H](CN(C)C(=O)NC2CCCCC2)[C@@H](C)CN([C@@H](C)CO)C(=O)c2cc(NS(=O)(=O)c3ccc(F)cc3)ccc2O1	-97.78
C[C@@H]1CN([C@@H](C)CO)C(=O)c2cc(NC(=O)C3CCCCC3)ccc2O[C@@H](C)CCCCO[C@@H]1CN(C)Cc1ccc2c(c1)OCO2	-41.87
Cc1ccc(-c2ccc3c(c2)O[C@@H](CN(C)CC2CC2)[C@@H](C)CN([C@@H](C)CO)S3(=O)=O)cc1	-25.99
CC(C)CC#Cc1ccc([C@@H]2[C@H]3CN(S(=O)(=O)c4cccc(F)c4)CC(=O)N3[C@H]2CO)cc1	-68.47
C[C@H]1CCCCO[C@@H](CN(C)Cc2ccc(C(F)(F)F)cc2)[C@@H](C)CN([C@@H](C)CO)C(=O)c2cc(N(C)C)ccc2O1	-54.85
C[C@@H]1CN([C@@H](C)CO)C(=O)c2cc(NC(=O)Nc3ccc(F)cc3)ccc2O[C@@H](C)CCCCO[C@H]1CN(C)Cc1ccccc1	-58.93
COc1ccccc1C#Cc1ccc([C@@H]2[C@@H](CO)N(C(=O)C3CC3)[C@H]2C#N)cc1	-21.9
COc1ccc(NC(=O)N2CCCCN3[C@H](CO)[C@@H](c4ccc(-c5ccccc5C)cc4)[C@H]3C2)cc1	-56.61
C[C@H]1CN([C@@H](C)CO)C(=O)c2cc(C#Cc3cccc(F)c3)cnc2O[C@H]1CN(C)C(=O)c1ccccc1F	-32.55
C=CCN1Cc2ccccc2[C@H]2OC(c3ccc(OCCCO)cc3)=N[C@@]2(CCC(=O)OC(C)(C)C)C1=O	-38.26
Cc1ccc(S(=O)(=O)N(C)C[C@@H]2Oc3c(NC(=O)Nc4ccc(F)cc4)cccc3C(=O)N([C@@H](C)CO)C[C@@H]2C)cc1	-56.62
CO[C@H]1CN(C)C(=O)c2ccc(NC(=O)Nc3ccc(Cl)cc3)cc2OC[C@H](C)N(C)C[C@@H]1C	-44.96
COc1ccc(NC(=O)Nc2ccc3c(c2)C(=O)N([C@H](C)CO)C[C@@H](C)[C@H](CN(C)C(=O)C2CCCCC2)OCCCC[C@@H](C)O3)cc1	-40.64
Cn1cnc(S(=O)(=O)N2CCCCN3[C@H](C2)[C@H](c2ccc(-c4cccc(F)c4)cc2)[C@@H]3CO)c1	-55.7
CC(C)NC(=O)N(C)C[C@@H]1Oc2cc(C#Cc3ccc(F)cc3)ccc2S(=O)(=O)N([C@@H](C)CO)C[C@@H]1C	-48.5
COc1ccccc1C#Cc1ccc2c(c1)O[C@H](CN(C)Cc1cccnc1)[C@H](C)CN([C@H](C)CO)S2(=O)=O	-49.09
C[C@@H]1CN([C@H](C)CO)S(=O)(=O)c2ccc(-c3ccccc3F)cc2O[C@@H]1CN(C)Cc1ccncc1	-51.12
COc1ccc(NC(=O)N2C[C@@H]3N[C@H](C2)C3c2ccc(-c3cccc(OC)c3)cc2)cc1 (some centres undefined)	-72.53
COc1ccc(CN(C)C[C@@H]2Oc3ccc(NC(=O)Nc4ccccc4)cc3CC(=O)N([C@@H](C)CO)C[C@@H]2C)cc1	-31.4
C[C@H](CO)N1C[C@H](C)[C@H](CN(C)Cc2ccc3c(c2)OCO3)OCCCC[C@H](C)Oc2ccc(NC(=O)Nc3ccc4c(c3)OCO4)cc2C1=O	-65.96
C[C@H]1CN([C@@H](C)CO)S(=O)(=O)c2ccc(-c3ccc(F)cc3)cc2O[C@H]1CN(C)CC1CC1	-24.02
C[C@H]1CN([C@@H](C)CO)S(=O)(=O)c2ccc(C#CC3CCCCC3)cc2O[C@H]1CN(C)C(=O)Cc1ccncc1	-46.4
C[C@@H]1CCCCO[C@H](CN(C)CC2CCCCC2)[C@@H](C)CN([C@H](C)CO)C(=O)c2cc(NC(=O)Nc3ccc4c(c3)OCO4)ccc2O1	-48.66
COc1cccc(C#Cc2ccc([C@@H]3[C@H]4CN(C(=O)c5ccccc5)CC(=O)N4[C@H]3CO)cc2)c1	-51.03

Once more, the final 4:

compound	activity change (Venus) (%)
C[C@H]1CN([C@@H](C)CO)S(=O)(=O)c2ccc(-c3ccc(F)cc3)cc2O[C@H]1CN(C)CC1CC1	-24.02
C[C@H]1CN([C@@H](C)CO)S(=O)(=O)c2ccc(C#CC3CCCCC3)cc2O[C@H]1CN(C)C(=O)Cc1ccncc1	-46.4
C[C@@H]1CCCCO[C@H](CN(C)CC2CCCCC2)[C@@H](C)CN([C@H](C)CO)C(=O)c2cc(NC(=O)Nc3ccc4c(c3)OCO4)ccc2O1	-48.66
COc1cccc(C#Cc2ccc([C@@H]3[C@H]4CN(C(=O)c5ccccc5)CC(=O)N4[C@H]3CO)cc2)c1	-51.03